# In PMC6367419 (Nature Communications, 2019):
# Results are given in words; binding and its absence hold for the method and conditions named.
# B1: EscN^29–446 (EPEC type III secretion system ATPase EscN, residues 29–446) (enzyme)
# chain: NSSTRYEGKIINIGGTIIKARLPKARIGAFYKIEPSQRLAEVIAIDEDEVFLLPFEHVSGMYCGQWLSYQGDEFKIRVGDALLGRLIDGIGRPMESNIVAPYLPFERSLYAEPPDPLLRQVIDQPFILGVRAIDGLLTCGIGQRIGIFAGSGVGKSTLLGMICNGASADIIVLALIGERGREVNEFLALLPQSTLSKCVLVVTTSDRPALERMKAAFTATTIAEYFRDQGKNVLLMMDSVTRYARAARDVGLASGEPDVRGGFPPSVFSSLPKLLERAGPAPKGSITAIYTVLLESDNVNDPIGDEVRSILDGHIVLTRELAEENHFPAIDIGLSASRVMHNVVTSEHLRAAAECKKLIATYKNVELLIRIGEYTMGQDPEADKAIKNRKLIQNFIQQSTKDISSYEKTIESLFKVVA
# notes: also called T3SS ATPase; chains NA to NF; source: E. coli BL21 (λDE3), purified (HisTrap HP, thrombin cleavage, second HisTrap HP, desalting)
# Biological target: EscN^29–446 (EPEC type III secretion system ATPase EscN, residues 29–446) (enteropathogenic Escherichia coli (EPEC) O127:H6 E2348/69) (UniProt B7UMA6)
# Assay: SEC + co-sedimentation; EscN alone without the transition state analogue; size exclusion chromatography, glycerol gradient centrifugation and negative-stain EM; both purified
binder,measurement,value
B1,binding,no binding (condition: without Mg2+ADP-AlF3)
